Assay results published in publication PMC7978294.

Molecular target: IL-4Rα-ΔIC-Flag (intracellular domain-depleted mIL-4Rα fused with Flag) (mouse)
Assay: co-IP; IP: Flag; IL-4Rα-KO BMDMs stably expressing IL-4Rα-WT-Flag or IL-4Rα-ΔIC-Flag, treated with IL-4 (100 ng/mL)

binding: no binding
B1: APPL1 (adaptor containing a pleckstrin homology (PH) domain, phosphotyrosine-binding (PTB) domain, and leucine zipper motif 1), endogenous mouse (protein, UniProt Q8K3H0 1-707)
chain: MPGIDKLPIEETLEDSPQTRSLLGVFEEDATAISNYMNQLYQAMHRIYDAQNELSAATHLTSKLLKEYEKQRFPLGGDDEVMSSTLQQFSKVIDELSSCHAVLSTQLADAMMFPISQFKERDLKEILTLKEVFQIASNDHDAAINRYSRLSKKRENDKVKYEVTEDVYTSRKKQHQTMMHYFCALNTLQYKKKIALLEPLLGYMQAQISFFKMGSENLNGQLEEFLANIGTSVQNVRREMDGDVETMQQTIEDLEVASDPLYLPDPDPTKFPINRNLTRKAGYLNARNKTGLVSSTWDRQFYFTQGGNLMSQARGDVAGGLAMDIDNCSVMAVDCEDRRYCFQITSFDGKKSSILQAESKKDHEEWICTINNISKQIYLSENPEETAARVNQSALEAVTPSPSFQQRHESLRPGGQSRPPTARTSSSGSLGSESTNLAALSLDSLVAPDTPIQFDIISPVCEDQPGQAKAFGQGGRRTNPFGESGGSTKSETEDSILHQLFIVRFLGSMEVKSDDHPDVVYETMRQILAARAIHNIFRMTESHLLVTCDCLKLIDPQTQVTRLTFPLPCVVLYATHQENKRLFGFVLRTSGGRSESNLSSVCYIFESNNEGEKICDSVGLAKQIALHAELDRRASEKQKEIERVKEKQQKELSKQKQIEKDLEEQSRLIAASSRPNQAGSEGQLVLSSSQSEESDLGEEGKKRESEA

Results are given in words; binding and its absence hold for the method and conditions named. In cells and extracts the contact can be indirect.
